# Laboratory results from article PMC4899846.
# Chains of the proteins cited; added tags and fusions are not shown. Lines headed by an entry give the natural chain unless they say otherwise; changes in a name come on top. A line that says so, or that is headed by a name, gives the form on record, which may keep a tag or linker.
# Flag-tagged Δ(71–190) GPRC5A (Q8NFJ5, form named): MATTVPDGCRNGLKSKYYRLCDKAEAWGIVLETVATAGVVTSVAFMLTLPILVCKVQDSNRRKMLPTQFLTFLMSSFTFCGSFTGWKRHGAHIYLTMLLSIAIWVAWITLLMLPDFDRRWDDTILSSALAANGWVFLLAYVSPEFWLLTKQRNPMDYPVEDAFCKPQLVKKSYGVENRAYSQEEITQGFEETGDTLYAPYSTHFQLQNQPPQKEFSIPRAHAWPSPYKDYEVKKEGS
# UniProt P60842: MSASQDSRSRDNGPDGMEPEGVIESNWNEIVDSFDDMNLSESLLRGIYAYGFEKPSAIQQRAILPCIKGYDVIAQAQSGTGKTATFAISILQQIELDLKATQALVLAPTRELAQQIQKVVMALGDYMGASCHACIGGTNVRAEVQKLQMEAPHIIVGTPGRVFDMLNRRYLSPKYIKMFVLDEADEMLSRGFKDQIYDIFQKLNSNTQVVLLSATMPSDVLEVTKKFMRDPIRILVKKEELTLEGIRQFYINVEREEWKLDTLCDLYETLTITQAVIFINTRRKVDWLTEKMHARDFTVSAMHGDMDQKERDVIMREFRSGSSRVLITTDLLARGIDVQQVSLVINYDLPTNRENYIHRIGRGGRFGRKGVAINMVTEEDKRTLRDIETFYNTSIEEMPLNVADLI
# No constants are given. Whether binding was seen depends on the method and setting. Binding seen in cells or lysates may run through a third protein.
# Biological target: Flag-tagged Δ(71–190) GPRC5A (human) (UniProt Q8NFJ5)
# Test: co-IP; ANTI-FLAG M2 Affinity Gel on H1299 lysates; NP-40 lysis buffer (50 mM Tris-HCl pH 8.0, 150 mM NaCl, 1% NP-40) with RNase cocktail, 4 °C; western blot
substance,measurement,value
eIF4A1 (from UniProt P60842 1-406),binding,no binding
